# Measurements published in PubChem BioAssay (NCATS).
# For some of these results: This list holds what a sample rich in hits left over. Records with an inconclusive call do not appear. This is a selection; strong and weak results do not stand in their true shares. Activity calls are given as the source filed them. Unless noted, calls follow the shape of the dose curve; as a rule, active = well fitted curve in the direction sought with a large enough effect; inconclusive = small, poorly fitted or top-dose-only effect, or another doubt; inactive = no such curve, though single readings can be large; an effect the other way counts as inactive or inconclusive.
# Assays:
# [1] = qHTS for small molecule inhibitors of Yes1 kinase: Counter Assay (AID 686950); details: at 154 µM (top of the series);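 also: no kinase present so only ADP-Glo detection of a fixed ADP amount is tested; luminescence from ADP-Glo reporting ADP in a fixed ATP and ADP mixture; 0% = DMSO wells with ATP plus ADP and -100% = ATP-only wells without ADP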
# Method in brief: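 Enzyme-free ADP-Glo interference check: compounds were preincubated 20 min in buffer, then an ATP/ADP mix (0.08 mM ATP, 0.02 mM ADP final) was added for 60 min at room temperature before two-step ADP-Glo luminescence detection.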
# [2] = qHTS profiling for inhibitors of Plasmodium falciparum (3D7) proliferation (AID 743322);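 also: infected erythrocytes exposed to compound for 72 h before lysis; 100% = DMSO vehicle wells and 0% = 0.29 µM artemisinin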; details: P. falciparum 3D7 proliferation
# Method in brief: (§1)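 Erythrocytes infected with P. falciparum (0.3% parasitemia, 2.5% hematocrit) incubated with compounds 72 h at 37 C, 5% CO2. Lysis with saponin/Triton buffer containing SYBR Green I, overnight at room temperature in the dark; DNA fluorescence (485/535 nm) normalised to 0.29 uM artemisinin and DMSO.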
# [3] = qHTS profiling for inhibitors of Plasmodium falciparum (DD2) proliferation (AID 743323; call rule not given here); details: lower = more inhibition
# Method in brief: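 Parasite DNA quantified by SYBR Green fluorescence (ex 485, em 535 nm) after saponin/Triton lysis and overnight dark incubation. Cultures: 0.3% parasitemia, 2.5% hematocrit, 72 h, 37 C; data scaled between DMSO and 0.29 uM artemisinin.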
# [4] = qHTS profiling for inhibitors of Plasmodium falciparum (HB3) proliferation (AID 743324); details: Plasmodium falciparum HB3 blood-stage proliferation;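 also: 100% = DMSO vehicle wells and 0% = artemisinin-treated control wells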
# Method in brief: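 P. falciparum HB3 grown in erythrocytes (0.3% parasitemia, 2.5% hematocrit final) with compound for 72 h at 37 C, 5% CO2. Parasite DNA detected by SYBR Green after saponin/triton lysis overnight; normalized to 0.29 uM artemisinin and DMSO.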
# [5] = qHTS profiling of the MIPE4 collection as inhibitors of Plasmodium falciparum (3D7) proliferation (AID 743344; call rule not given here;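 also: scaled between DMSO vehicle wells and 0.29 µM artemisinin as full inhibition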); details: P. falciparum 3D7 in erythrocytes, SYBR Green DNA fluorescence, 72 h; at 28.5 µM (top of the series)
# Method in brief: as §1
# [6] = qHTS profiling of the MIPE4 collection as inhibitors of Plasmodium falciparum (DD2) proliferation (AID 743345; call rule not given here); details: P. falciparum Dd2 in erythrocytes, SYBR Green DNA, 72 h; at 28.5 µM (top of the series)
# Method in brief: as §1
# [7] = qHTS profiling of the MIPE4 collection as inhibitors of Plasmodium falciparum (DD2) proliferation (Rep 2) (AID 743346; call rule not given here); details: P. falciparum Dd2 in erythrocytes, SYBR Green DNA, 72 h; at 28.5 µM (top of the series)
# Method in brief: as §1
# [8] = qHTS profiling of the MIPE4 collection as inhibitors of Plasmodium falciparum (HB3) proliferation (AID 743347; call rule not given here;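 also: plate controls were DMSO vehicle wells for no effect and artemisinin wells for full effect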); details: P. falciparum HB3 in erythrocytes, SYBR Green DNA, 72 h; at 28.5 µM (top of the series)
# Method in brief: as §1
# [9] = qHTS Screen of the MIPE 4.0 Collection Against Ewings Sarcoma (RDES) (AID 1259252); details: RD-ES Ewing sarcoma viability, CellTiter-Glo, 48 h; also: potency is read from the fitted curve at half-maximal effect; nearly all actives have a fitted effect of over 35% in size
# Method in brief: (§2)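 Here, cells in 5% FBS RPMI were exposed for two days (48 h) to compound dilutions added four hours after plating. ATP-based CellTiter-Glo luminescence measured viability, normalized to vehicle and no-cell blanks.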
# [10] = qHTS Screen of the MIPE 4.0 Collection Against Ewings Sarcoma (TC71) (AID 1259253); details: TC71 Ewing sarcoma viability, CellTiter-Glo, 48 h; also: potency is read from the fitted curve at half-maximal effect; nearly all actives have a fitted effect of over 40% in size
# Method in brief: as §2
# [11] = qHTS Screen of the MIPE 4.0 Collection Against Ewings Sarcoma (EW8) (AID 1259255); details: EW8 Ewing sarcoma viability, CellTiter-Glo, 48 h; also: potency is read from the fitted curve at half-maximal effect; nearly all actives have a fitted effect of over 35% in size
# Method in brief: as §2
# [12] = qHTS Screen of the MIPE 4.0 Collection Against Ewings Sarcoma (TC32) (AID 1259256); details: TC32 Ewing sarcoma viability, CellTiter-Glo, 48 h; also: potency is read from the fitted curve at half-maximal effect; nearly all actives have a fitted effect of over 45% in size
# Method in brief: as §2
# [13] = qHTS assay to identify small molecule inhibitors of chordoma cells - UCH-1 (AID 1259355); details: UCH-1 chordoma viability, CellTiter-Glo, 48 h, combination; also: potency is read from the fitted curve at half-maximal effect; nearly all actives have a fitted effect of over 55% in size
# Method in brief: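 Luminescent ATP read-out (CellTiter-Glo, 30min at room temperature) measured viability of UCH-1 cells exposed for 48hr to test drugs at 15 concentrations, co-dosed with a five-agent combination of auranofin, camptothecin, doxorubicin, rubitecan and topotecan.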
# [14] = qHTS assay to identify small molecule inhibitors of chordoma cells - UCH-2 (AID 1259356); details: UCH-2 chordoma viability, CellTiter-Glo ATP luminescence, 48 h; at 46.1 µM (top of the series); also: % is scaled to controls: 0 for no effect and ±100 for the full control effect
# [15] = Identifying Small Molecule Inhibitors of Pancreatic Cancer Stem Cells (A2780, Spheroid) (AID 1259357); details: at 92.2 µM (top of the series);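 also: spheroids pre-formed over 14 days in stem cell medium on hydrogel; compound exposure lasted 48 h before the ATP luminescence read; 100% = DMSO treated cells and 0% = wells without cells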
# Method in brief: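 After a 4 h attachment period, compounds were pinned into wells and cultures held 48 h under standard incubator conditions. Viability was then measured as CellTiter-Glo luminescence following 10 min at room temperature.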
# [16] = Identifying Small Molecule Inhibitors of Pancreatic Cancer Stem Cells (SN12C, Adherent) (AID 1259358); details: viability/growth inhibition;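 also: potency is read from the fitted curve at half-maximal effect; cell survival measured after 48 h of compound exposure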
# Method in brief: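 Luminescent ATP readout (CellTiter-Glo) quantifies surviving cells after a 48 h drug incubation. Normalization uses DMSO wells as no inhibition and media-only wells as full inhibition; bortezomib served as positive control.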
# [17] = system: Zika virus NS2B-NS3 protease; assay: Primary screen GU AMC qHTS for Zika virus inhibitors (AID 1347154);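 also: 0% = no-inhibitor control and -100% = no-enzyme control; nearly all actives have a fitted effect of over 70% in size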
# Method in brief: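 Unlinked Zika NS2B hydrophilic domain/NS3 protease domain noncovalent complex (25 nM final) in 10 mM Tris-HCl pH 8.0, 0.01% Tween 20, with AMC peptide substrate. Fluorescence (ex 340, em 450 nm) change over 15 min, room temperature; percent inhibition fitted to 4-parameter Hill equation.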
# [18] = qHTS profiling for inhibitors of Plasmodium falciparum proliferation (AID 504749); also: potency is read from the fitted curve at half-maximal effect; nearly all actives have a fitted effect of over 60% in size; details: P. falciparum in erythrocytes, SYBR Green DNA, 72 h
# Method in brief: (§3)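 Parasite proliferation within erythrocytes, 72 h exposure. Endpoint: SYBR Green I fluorescence after overnight lysis at room temperature. Controls: 0.29 uM artemisinin, DMSO.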
# 3D7 = assay: as above; details: P. falciparum in erythrocytes, SYBR Green DNA, 72 h
# Method in brief: as §3
# 7G8 = assay: as above; details: P. falciparum in erythrocytes, SYBR Green DNA, 72 h
# Method in brief: as §3
# AA1029 = assay: as above; details: P. falciparum in erythrocytes, SYBR Green DNA, 72 h
# Method in brief: as §3
# AS120 = assay: as above; details: P. falciparum in erythrocytes, SYBR Green DNA, 72 h
# Method in brief: as §3
# ATS189 = assay: as above; details: P. falciparum in erythrocytes, SYBR Green DNA, 72 h
# Method in brief: as §3
# ATS95 = assay: as above; details: P. falciparum in erythrocytes, SYBR Green DNA, 72 h
# Method in brief: as §3
# C2A = assay: as above; details: P. falciparum in erythrocytes, SYBR Green DNA, 72 h
# Method in brief: as §3
# CP185 = assay: as above; details: P. falciparum in erythrocytes, SYBR Green DNA, 72 h
# Method in brief: as §3
# CP191 = assay: as above; details: P. falciparum in erythrocytes, SYBR Green DNA, 72 h
# Method in brief: as §3
# CP192 = assay: as above; details: P. falciparum in erythrocytes, SYBR Green DNA, 72 h
# Method in brief: as §3
# CP194 = assay: as above; details: P. falciparum in erythrocytes, SYBR Green DNA, 72 h
# Method in brief: as §3
# CP201 = assay: as above; details: P. falciparum in erythrocytes, SYBR Green DNA, 72 h
# Method in brief: as §3
# CP203 = assay: as above; details: P. falciparum in erythrocytes, SYBR Green DNA, 72 h
# Method in brief: as §3
# CP211 = assay: as above; details: P. falciparum in erythrocytes, SYBR Green DNA, 72 h
# Method in brief: as §3
# CP215 = assay: as above; details: P. falciparum in erythrocytes, SYBR Green DNA, 72 h
# Method in brief: as §3
# CP217 = assay: as above; details: P. falciparum in erythrocytes, SYBR Green DNA, 72 h
# Method in brief: as §3
# CP237 = assay: as above; details: P. falciparum in erythrocytes, SYBR Green DNA, 72 h
# Method in brief: as §3
# CP238 = assay: as above; details: P. falciparum in erythrocytes, SYBR Green DNA, 72 h
# Method in brief: as §3
compound,measurement,setting,value
O=C(CCCCCCC(=O)Nc1ccccc1)NO,"activity change, negative = inhibition",[1],inactive: -0.712%
same,remaining parasite growth % (stronger effect = lower value),[2]; at 28.7 µM (top of the series),-1.09%
same,remaining parasite growth % (stronger effect = lower value),[2]; at 57.5 µM (top of the series),0.0859%
same,"activity, percent of control",[3]; at 28.7 µM (top of the series),0.142%
same,"activity, percent of control",[3]; at 57.5 µM (top of the series),0.337%
same,"remaining proliferation (% of control), lower = more inhibition",[4]; at 28.7 µM (top of the series),0.0858%
same,"remaining proliferation (% of control), lower = more inhibition",[4]; at 57.5 µM (top of the series),0.4%
same,"parasite growth, % of DMSO control",[5],5.19%
same,"parasite growth remaining, % of DMSO control (lower = more inhibition)",[6],7.07%
same,"parasite growth, % of control (lower = inhibition)",[7],15.5%
same,"growth, % of control",[8],4.44%
same,Potency,[9],active: 2960 nM
same,Potency,[10],active: 2960 nM
same,Potency,[11],active: 2350 nM
same,Potency,[12],active: 2350 nM
same,Potency,[13],active: 10000 nM
same,"activity change, negative = inhibition",[14],inactive: -9.44%
same,viability (percent of control),[15],inactive: 107%
same,Potency,[16],active: 34000 nM
same,Potency,[17],inactive
same,Potency,[18]; parasite line A,active: 891 nM
same,Potency,[18]; parasite line B,active: 708 nM
same,Potency,3D7,active: 891 nM
same,Potency,7G8,active: 316 nM
same,Potency,AA1029,active: 501 nM
same,Potency,AS120,active: 398 nM
same,Potency,ATS189,active: 891 nM
same,Potency,ATS95,active: 631 nM
same,Potency,C2A,active: 501 nM
same,Potency,CP185,active: 794 nM
same,Potency,CP191,active: 447 nM
same,Potency,CP192,active: 1350 nM
same,Potency,CP194,active: 757 nM
same,Potency,CP201,active: 1350 nM
same,Potency,CP203,active: 849 nM
same,Potency,CP211,active: 1070 nM
same,Potency,CP215,active: 953 nM
same,Potency,CP217,active: 2820 nM
same,Potency,CP237,active: 355 nM
same,Potency,CP238,active: 794 nM
